Measurements as given in patent US10407467B2 (priority 2013, dated 2019).

Assay: general procedure: peptide synthesis; HATU/DIPEA
Details: late stage modification step, TFA salt

Work on “N-[2-(1-aminocyclohexyl)ethyl] Polymyxin B nonapeptide” yielded a step yield of 62%.
